Common to all, as to type: cell-based
One assay has as its target CaV2.2 (Homo sapiens, UniProt Q00975). Description: High-throughput CaV2.2/Kir2.3 FLIPR fluorescent assay. Particulars: read-out: FLIPR data CaV2.2, Fluo-4 FLIPR, closed or inactivated state not stated. The protocol:
Cells were plated in 384-well, clear-bottom, black-walled, poly-D-lysine coated plates (Becton Dickinson, Franklin Lake, N.J.) 2 days prior to use in the FLIPR assay. 100 μL of cells (1.4×10^6 cell/mL) containing doxycyline (Sigma-Aldrich, 1.5 μg/mL; to induce channel expression) were added to each well using a Multidrop (Thermo Scientific, Waltham, Mass.) and were maintained in 5% CO2 incubator at 37° C. On the morning of the assay, cells were transferred to a 5% CO2 incubator at 29° C.
Cells were washed with a wash buffer containing (in mM): 118 NaCl, 18.4 HEPES, 11.7 D-glucose, 2 CaCl2, 0.5 MgSO4, 4.7 KCl, 1.2 KH2PO4, pH adjusted to 7.2 with NaOH. 4.4 μM of the fluorescent indicator dye, Fluo-4 (Invitrogen), prepared in pluronic acid (Sigma-Aldrich), was loaded into the wells and incubated for 45 minutes at 29° C. in 5% CO2. Cells were then rinsed with either a 2 mM KCl closed-state buffer (in mM: 138.5 NaCl, 10 HEPES, 10 D-glucose, 1 CaCl2, and 2 KCl, with the pH adjusted to 7.4 with NaOH) when performing the closed-state assay or 12.5 mM KCl inactivated-state buffer (in mM: 128 NaCl, 10 HEPES, 10 D-glucose, 1 CaCl2, and 12.5 mM KCl, with the pH adjusted to 7.4 with NaOH) when performing the inactivated-state assay.
Concentration-dependent response curves were generated from 5 mM stock solutions prepared in DMSO (Sigma-Aldrich) and diluted in either the 2 mM KCl buffer or 12.5 mM KCl buffer and incubated for 20 minutes at 29° C. in 5% CO2. Calcium entry was evoked with an addition of 130 mM KCl stimulation buffer (in mM: 10.5 NaCl, 10 HEPES, 10 D-glucose, 1 CaCl2, and 130 KCl, with the pH adjusted to 7.4 with NaOH) for both the closed-state or inactivated-state assay. A change in the Fluo-4 fluorescence signal was assessed using FLIPR^TETRA™ instrument (Molecular Devices, Sunnyvale, Calif.) for 3 minutes following the elevation of extracellular KCl using an illumination wavelength of 470-495 nm with emissions recorded at 515-575 nm.
Concentration-dependent response curves were obtained by comparing the fluorescence signal in the presence of compound and fitted with a logistic function (1) to obtain the concentration that inhibited 50% (IC50) of the RLU signal using OriginPro v.7.5 software (OriginLab, Northampton, Mass.).
(§1) To assess the quality of the FLIPR assays the Z-factor (2) was used to quantify the suitability of the assay conditions using the following equation: […]
(§2) Data are expressed as mean and standard deviation (SD).

Sequences of proteins named here, by UniProt entry; tags and fusion partners are left off. Residues count along the entry.
UniProt Q00975, whole entry: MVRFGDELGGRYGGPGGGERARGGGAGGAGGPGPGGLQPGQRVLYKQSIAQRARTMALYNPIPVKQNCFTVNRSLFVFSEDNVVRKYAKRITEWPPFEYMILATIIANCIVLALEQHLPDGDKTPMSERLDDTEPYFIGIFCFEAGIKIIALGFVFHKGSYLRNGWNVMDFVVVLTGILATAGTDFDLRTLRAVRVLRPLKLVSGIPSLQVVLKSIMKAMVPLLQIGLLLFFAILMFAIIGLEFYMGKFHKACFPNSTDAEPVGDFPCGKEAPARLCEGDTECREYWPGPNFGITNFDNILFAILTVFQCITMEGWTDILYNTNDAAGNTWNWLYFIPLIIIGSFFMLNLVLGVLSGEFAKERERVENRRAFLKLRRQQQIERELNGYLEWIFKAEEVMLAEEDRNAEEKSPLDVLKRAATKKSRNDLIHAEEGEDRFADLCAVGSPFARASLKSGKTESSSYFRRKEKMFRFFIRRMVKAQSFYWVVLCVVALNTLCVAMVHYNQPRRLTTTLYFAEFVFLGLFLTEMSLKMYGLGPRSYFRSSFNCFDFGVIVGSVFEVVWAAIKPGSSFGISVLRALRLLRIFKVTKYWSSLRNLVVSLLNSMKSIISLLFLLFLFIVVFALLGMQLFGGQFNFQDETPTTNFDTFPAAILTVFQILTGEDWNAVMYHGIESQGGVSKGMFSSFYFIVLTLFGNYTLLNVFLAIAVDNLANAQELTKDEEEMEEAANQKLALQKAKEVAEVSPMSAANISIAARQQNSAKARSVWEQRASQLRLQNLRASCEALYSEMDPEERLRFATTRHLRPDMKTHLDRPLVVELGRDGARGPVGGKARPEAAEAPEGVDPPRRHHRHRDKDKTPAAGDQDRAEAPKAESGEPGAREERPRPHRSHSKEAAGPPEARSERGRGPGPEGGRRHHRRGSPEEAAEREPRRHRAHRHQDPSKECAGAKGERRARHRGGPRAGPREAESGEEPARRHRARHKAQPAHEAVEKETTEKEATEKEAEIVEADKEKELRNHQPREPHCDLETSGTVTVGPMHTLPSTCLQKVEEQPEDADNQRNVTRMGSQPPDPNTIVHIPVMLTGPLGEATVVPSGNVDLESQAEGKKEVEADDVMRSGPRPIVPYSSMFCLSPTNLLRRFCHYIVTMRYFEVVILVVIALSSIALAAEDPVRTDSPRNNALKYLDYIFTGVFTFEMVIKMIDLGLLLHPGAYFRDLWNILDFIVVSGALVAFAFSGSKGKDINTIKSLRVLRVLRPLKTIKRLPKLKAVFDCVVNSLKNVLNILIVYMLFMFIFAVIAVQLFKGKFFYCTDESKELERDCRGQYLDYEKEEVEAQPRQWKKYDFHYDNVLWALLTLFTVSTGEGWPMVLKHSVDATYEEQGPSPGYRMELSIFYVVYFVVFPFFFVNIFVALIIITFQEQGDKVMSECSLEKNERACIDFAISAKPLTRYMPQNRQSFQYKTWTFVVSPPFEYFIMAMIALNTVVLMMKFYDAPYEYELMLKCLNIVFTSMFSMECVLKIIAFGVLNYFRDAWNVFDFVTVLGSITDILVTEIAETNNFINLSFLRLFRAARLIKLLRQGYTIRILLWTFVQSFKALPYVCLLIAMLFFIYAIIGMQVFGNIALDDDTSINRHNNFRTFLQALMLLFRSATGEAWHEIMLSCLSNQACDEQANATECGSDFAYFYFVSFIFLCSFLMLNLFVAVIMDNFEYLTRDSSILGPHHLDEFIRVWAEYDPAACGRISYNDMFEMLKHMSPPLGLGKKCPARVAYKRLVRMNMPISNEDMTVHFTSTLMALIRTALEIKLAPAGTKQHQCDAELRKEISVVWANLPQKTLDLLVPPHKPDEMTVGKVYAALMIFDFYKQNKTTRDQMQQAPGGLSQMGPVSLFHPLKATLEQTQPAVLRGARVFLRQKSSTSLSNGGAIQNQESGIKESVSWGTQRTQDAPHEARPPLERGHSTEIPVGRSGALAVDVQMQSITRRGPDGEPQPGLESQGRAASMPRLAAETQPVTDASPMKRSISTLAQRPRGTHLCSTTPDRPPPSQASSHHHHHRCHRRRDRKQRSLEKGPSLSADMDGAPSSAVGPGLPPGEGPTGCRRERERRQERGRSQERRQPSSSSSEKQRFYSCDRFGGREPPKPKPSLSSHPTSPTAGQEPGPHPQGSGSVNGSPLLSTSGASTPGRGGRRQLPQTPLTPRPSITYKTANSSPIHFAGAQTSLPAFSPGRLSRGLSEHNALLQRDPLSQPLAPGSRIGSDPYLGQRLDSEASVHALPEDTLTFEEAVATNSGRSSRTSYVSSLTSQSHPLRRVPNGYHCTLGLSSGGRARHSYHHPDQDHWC
UniProt O43497, whole entry: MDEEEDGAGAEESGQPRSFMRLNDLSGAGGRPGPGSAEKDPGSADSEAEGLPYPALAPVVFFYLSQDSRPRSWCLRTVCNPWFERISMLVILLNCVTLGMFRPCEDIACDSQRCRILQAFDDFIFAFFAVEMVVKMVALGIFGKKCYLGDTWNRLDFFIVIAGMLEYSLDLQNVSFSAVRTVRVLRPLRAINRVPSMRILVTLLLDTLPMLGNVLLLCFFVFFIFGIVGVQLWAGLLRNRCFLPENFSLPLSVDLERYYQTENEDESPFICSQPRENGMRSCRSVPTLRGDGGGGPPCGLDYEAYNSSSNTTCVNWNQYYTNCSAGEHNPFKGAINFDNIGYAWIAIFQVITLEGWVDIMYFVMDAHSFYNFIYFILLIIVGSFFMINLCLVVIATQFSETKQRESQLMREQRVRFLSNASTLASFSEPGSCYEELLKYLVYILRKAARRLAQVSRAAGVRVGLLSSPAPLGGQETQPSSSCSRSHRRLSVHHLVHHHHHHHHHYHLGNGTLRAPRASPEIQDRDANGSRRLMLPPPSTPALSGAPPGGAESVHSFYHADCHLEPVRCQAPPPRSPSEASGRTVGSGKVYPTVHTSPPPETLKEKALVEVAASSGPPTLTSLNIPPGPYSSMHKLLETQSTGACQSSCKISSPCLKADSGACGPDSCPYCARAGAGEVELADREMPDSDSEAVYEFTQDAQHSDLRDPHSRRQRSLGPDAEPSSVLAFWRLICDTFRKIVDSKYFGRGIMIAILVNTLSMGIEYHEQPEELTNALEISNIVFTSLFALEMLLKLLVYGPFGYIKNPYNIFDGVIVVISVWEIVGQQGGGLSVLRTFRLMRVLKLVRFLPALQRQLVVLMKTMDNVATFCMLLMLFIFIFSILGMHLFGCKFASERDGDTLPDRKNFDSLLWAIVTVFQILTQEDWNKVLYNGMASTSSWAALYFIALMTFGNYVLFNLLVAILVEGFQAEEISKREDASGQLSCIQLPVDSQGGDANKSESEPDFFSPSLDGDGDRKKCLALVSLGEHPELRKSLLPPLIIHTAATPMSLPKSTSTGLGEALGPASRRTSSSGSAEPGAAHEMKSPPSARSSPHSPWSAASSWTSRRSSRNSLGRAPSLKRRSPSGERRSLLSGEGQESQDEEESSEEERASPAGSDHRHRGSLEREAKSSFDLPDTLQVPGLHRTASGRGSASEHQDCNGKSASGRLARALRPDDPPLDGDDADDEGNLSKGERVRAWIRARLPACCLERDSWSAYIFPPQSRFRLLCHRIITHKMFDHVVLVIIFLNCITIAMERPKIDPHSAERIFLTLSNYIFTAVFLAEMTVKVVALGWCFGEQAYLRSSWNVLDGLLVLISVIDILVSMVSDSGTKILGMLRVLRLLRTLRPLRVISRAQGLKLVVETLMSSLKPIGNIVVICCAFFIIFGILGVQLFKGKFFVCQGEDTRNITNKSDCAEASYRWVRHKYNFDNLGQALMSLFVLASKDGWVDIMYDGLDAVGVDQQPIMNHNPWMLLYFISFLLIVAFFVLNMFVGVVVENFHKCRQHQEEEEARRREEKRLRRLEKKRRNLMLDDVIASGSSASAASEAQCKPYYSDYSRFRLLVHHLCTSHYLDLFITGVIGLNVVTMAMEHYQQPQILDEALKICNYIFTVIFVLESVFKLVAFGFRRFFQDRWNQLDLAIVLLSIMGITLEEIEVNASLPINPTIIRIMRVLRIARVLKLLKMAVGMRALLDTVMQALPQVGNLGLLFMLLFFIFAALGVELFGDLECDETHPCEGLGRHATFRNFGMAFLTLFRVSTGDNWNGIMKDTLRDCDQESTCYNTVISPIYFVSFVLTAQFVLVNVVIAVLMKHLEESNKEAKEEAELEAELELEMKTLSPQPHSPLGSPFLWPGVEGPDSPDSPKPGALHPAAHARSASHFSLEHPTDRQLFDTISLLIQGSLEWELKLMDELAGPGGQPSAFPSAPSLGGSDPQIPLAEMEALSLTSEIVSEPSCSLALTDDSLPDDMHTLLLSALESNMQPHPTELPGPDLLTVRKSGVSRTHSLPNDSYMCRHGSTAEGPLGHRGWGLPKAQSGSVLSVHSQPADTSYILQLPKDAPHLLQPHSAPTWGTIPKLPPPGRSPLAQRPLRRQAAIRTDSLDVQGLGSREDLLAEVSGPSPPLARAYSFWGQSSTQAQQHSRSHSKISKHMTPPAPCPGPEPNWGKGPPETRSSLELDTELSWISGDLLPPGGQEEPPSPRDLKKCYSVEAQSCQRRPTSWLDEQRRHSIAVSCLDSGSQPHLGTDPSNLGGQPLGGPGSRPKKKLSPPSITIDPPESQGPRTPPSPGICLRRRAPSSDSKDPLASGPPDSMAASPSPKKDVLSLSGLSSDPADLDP
UniProt P54284, whole entry partner: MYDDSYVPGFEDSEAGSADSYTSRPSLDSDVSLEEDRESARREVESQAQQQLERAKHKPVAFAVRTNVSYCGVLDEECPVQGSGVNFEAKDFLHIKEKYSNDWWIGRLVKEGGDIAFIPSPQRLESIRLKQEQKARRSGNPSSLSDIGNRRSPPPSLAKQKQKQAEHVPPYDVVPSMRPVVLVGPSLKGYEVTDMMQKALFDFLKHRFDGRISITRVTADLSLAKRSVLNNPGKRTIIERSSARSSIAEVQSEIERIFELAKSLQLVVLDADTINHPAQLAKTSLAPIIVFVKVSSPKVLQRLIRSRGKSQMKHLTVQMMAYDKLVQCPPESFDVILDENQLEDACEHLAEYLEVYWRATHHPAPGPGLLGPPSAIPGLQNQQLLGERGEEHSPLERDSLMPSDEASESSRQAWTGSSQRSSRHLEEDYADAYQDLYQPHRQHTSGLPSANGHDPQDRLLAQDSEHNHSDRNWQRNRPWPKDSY
UniProt P54289, 25-946 partner limits assumed: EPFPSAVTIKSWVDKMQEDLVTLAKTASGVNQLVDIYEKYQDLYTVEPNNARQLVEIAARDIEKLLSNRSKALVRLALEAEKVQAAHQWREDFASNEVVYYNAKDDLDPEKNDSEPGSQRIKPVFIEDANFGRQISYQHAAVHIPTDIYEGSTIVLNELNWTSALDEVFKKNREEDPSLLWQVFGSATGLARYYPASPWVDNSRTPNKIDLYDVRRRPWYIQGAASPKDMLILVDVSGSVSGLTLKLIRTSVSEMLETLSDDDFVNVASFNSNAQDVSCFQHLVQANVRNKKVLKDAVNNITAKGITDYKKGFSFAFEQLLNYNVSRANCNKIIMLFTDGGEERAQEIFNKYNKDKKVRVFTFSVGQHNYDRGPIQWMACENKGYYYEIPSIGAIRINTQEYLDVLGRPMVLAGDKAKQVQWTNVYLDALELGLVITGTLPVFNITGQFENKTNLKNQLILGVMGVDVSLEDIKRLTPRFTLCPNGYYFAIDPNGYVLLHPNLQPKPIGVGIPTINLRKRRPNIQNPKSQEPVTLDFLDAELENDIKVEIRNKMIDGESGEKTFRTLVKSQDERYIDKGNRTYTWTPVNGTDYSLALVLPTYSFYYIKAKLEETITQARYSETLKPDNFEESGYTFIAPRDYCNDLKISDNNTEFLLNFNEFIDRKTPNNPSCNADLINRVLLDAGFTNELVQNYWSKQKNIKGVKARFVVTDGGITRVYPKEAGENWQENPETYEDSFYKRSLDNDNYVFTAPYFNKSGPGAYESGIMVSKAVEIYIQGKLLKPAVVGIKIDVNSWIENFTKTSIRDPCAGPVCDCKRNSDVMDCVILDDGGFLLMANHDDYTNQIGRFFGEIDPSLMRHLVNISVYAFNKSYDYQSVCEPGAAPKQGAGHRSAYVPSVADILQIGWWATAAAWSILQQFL
UniProt P54289, 947-1103 partner limits assumed: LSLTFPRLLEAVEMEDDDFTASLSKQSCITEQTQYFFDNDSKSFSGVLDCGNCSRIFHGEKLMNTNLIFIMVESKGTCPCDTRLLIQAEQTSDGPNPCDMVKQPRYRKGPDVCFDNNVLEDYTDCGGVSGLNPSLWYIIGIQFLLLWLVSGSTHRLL

Another assay deals with CaV3.1 (Homo sapiens, UniProt O43497). Description: High-throughput CaV3.1 T-type FLIPR fluorescent assay. To be noted: read-out: FLIPR data CaV3.1, Fluo-4 FLIPR. Here is the method:
Cells were plated in 384-well, clear-bottom, black-walled, poly-D-lysine coated plates (Becton Dickinson, Franklin Lake, N.J.) 2 days prior to use in the FLIPR assay. 100 μL of cells (2.0×10^6 cell/mL) containing doxycyline (Sigma-Aldrich, 1.5 μg/mL; to induce channel expression) were added to each well using a Multidrop (Thermo Scientific, Waltham, Mass.) and were maintained in 5% CO2 incubator at 37° C. On the morning of the assay, cells were transferred to a 5% CO2 incubator at 29° C.
Cells were washed with a wash buffer containing (in mM): 118 NaCl, 18.4 HEPES, 11.7 D-glucose, 0.05 CaCl2, 0.5 MgSO4, 1 KCl, and 1.2 KH2PO4, with the pH adjusted to 7.2 with NaOH. 4.4 μM of the fluorescent indicator dye, Fluo-4 (Invitrogen), prepared in pluronic acid
(Sigma-Aldrich), was loaded into the wells and incubated for 45 minutes at 29° C. in 5% CO2. […] A change in the Fluo-4 fluorescence signal was assessed using FLIPR^TETRA™ instrument (Molecular Devices, Sunnyvale, Calif.) for 3 minutes following the elevation of extracellular KCl using an illumination wavelength of 470-495 nm with emissions recorded at 515-575 nm. […]
as §1, §2

In the next assay the target is CaV3.2 (Homo sapiens, UniProt O95180). Description: High-throughput CaV3.2/Kir2.3 T-type FLIPR fluorescent assay. To be noted: read-out: FLIPR data CaV3.2, Fluo-4 FLIPR, closed or inactivated state not stated. The protocol:
Cells were plated in 384-well, clear-bottom, black-walled, poly-D-lysine coated plates (Becton Dickinson, Franklin Lake, N.J.) 2 days prior to use in the FLIPR assay. 100 µL of cells (1.2×10^6 cell/mL) containing doxycyline (Sigma-Aldrich, 1.5 μg/mL; to induce channel expression) were added to each well using a Multidrop (Thermo Scientific, Waltham, Mass.) and were maintained in 5% CO2 incubator at 37° C. On the morning of the assay, cells were transferred to a 5% CO2 incubator at 29° C.
Cells were washed with a wash buffer containing (in mM): 118 NaCl, 18.4 HEPES, 11.7 D-glucose, 2 CaCl2, 0.5 MgSO4, 4.7 KCl, and 1.2 KH2PO4, with the pH adjusted to 7.2 with
NaOH. 4.4 μM of the fluorescent indicator dye Fluo-4 (Invitrogen) prepared in pluronic acid (Sigma-Aldrich) was loaded into the wells and incubated for 45 minutes at 29° C. in 5% CO2. […] A change in the Fluo-4 fluorescence signal was assessed using FLIPR^TETRA™ instrument (Molecular Devices, Sunnyvale, Calif.) for 3 minutes following the elevation of extracellular KCl using an illumination wavelength of 470-495 nm with emissions recorded at 515-575 nm. […]
as §1, §2

pIC50: −log10 of the molar value. Read-outs that look alike come from different tables or passages of the source. The structures given here were assigned with low confidence; some may be wrong.

Take `Cc1ccc(S(C)(=O)=O)cc1C(=O)NCCC(C)(C)S(=O)(=O)c1cccc(C(F)(F)F)c1`: on CaV2.2 (Table 5), the pIC50 is 5.93.

Turning to `CC(C)(CNC(=O)c1cc(Cl)nc(Cl)c1)S(=O)(=O)c1cccc(C(F)(F)F)c1`, the pIC50 was 5.78 at CaV2.2 (Table 5), 5.05 on CaV3.1 (Table 5) and 5.45 on CaV3.2 (Table 5).

Take `O=C(NCc1ccccc1S(=O)(=O)c1cccc(C(F)(F)F)c1)[C@@H]1C[C@@H](O)CN1`: on CaV2.2 (Table 4), the pIC50 is 5.02.

In the case of `CC(C)(CCNC(=O)c1ncc(C(F)(F)F)cc1S(C)(=O)=O)S(=O)(=O)c1cc(F)cc(C(F)(F)F)c1`, on CaV2.2 (Table 5), the pIC50 is 5.84.

Consider `Cn1nc(C(F)(F)F)cc1C(=O)NCc1ccc(S(=O)(=O)c2cccc(C(F)(F)F)c2)cn1`, for which the pIC50 was 6.24 on CaV2.2 (Table 4), 5.84 at CaV3.1 (Table 4) and 6.13 on CaV3.2 (Table 4).

Take `CC(C)(CNC(=O)c1cc(C(F)(F)F)nc(S(C)(=O)=O)c1)S(=O)(=O)c1cccc(C(F)(F)F)c1`: the pIC50 on CaV2.2 (Table 5) was 5.65.

The record behind these values is patent US20140113898A1, “BISARYLSULFONE AND DIALKYLARYLSULFONE COMPOUNDS AS CALCIUM CHANNEL BLOCKERS” (Zalicus Pharmaceuticals Ltd., priority 2010, published 2014).
